# Results reported in the supplement of paper PMC12889115.
# The other results are listed elsewhere or left out. These are raw signals, not scaled to a control.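 In the initial screen, polymyxin B was used at a concentration that permeabilizes Salmonella's outer membrane but not its inner membrane. Maximum growth was set by DMSO wells with or without polymyxin B. Since plates varied, data were ranked per plate, and compounds giving the lowest OD600 advanced as hits.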
# Tested on: Salmonella enterica serovar Typhimurium SL1344
# Experiment: bacterial growth OD600 after 18 h with compound and polymyxin B; higher = more bacterial growth (less inhibition)
# Conditions: 50 µM, Mueller-Hinton broth
Compound,bacterial growth OD600 (polymyxin B 0.75 µg/mL),bacterial growth OD600 (polymyxin B 1 µg/mL)
COc1cc(CC2(CCC(=O)NCCc3ccccc3C(F)(F)F)CCC(=O)N2)ccc1F (stereo not given),0.789,
CCN(CCn1cccn1)C(=O)c1ccc2oc(CCc3ccccc3)nc2c1,,0.756
Cc1cnc(C)c(N2CCN(C(=O)CCC3(Cc4ccc(Cl)cc4)CCC(=O)N3)CC2)n1 (stereo not given),1.01,
Cn1cc(CN2CCCC(Nc3ccccc3)C2)cn1 (stereo not given),,1.22
c1cnc(Oc2ccc(CNCc3cccnc3N3CCOCC3)cc2)nc1,,0.794
O=C1CCCN1CCCC(=O)N1CC[C@@H](N2CCN(c3ccccc3F)CC2)[C@H](O)C1,,0.89
COC(=O)c1cc(CNC(=O)c2ccccn2)cc(NC(=O)/C=C/c2cccc(F)c2)c1,0.478,
COc1ccc(CC(=O)NCC2CCCN(Cc3ccc(F)c(OC)c3)C2)cc1 (stereo not given),,0.962
O=C(CC1(c2ccccc2F)CC(=O)N(C2CCCC2)C1=O)N(CC1CCC1)CC1CCCO1 (stereo not given),0,
C=CCC(O)(CC=C)C(C)NC(=O)CCC1(Cc2ccc(OC)cc2F)CCC(=O)N1 (stereo not given),0.881,
CCN1CCCC1CNC(=O)CCC1CCN(Cc2nc3c(s2)CCCC3)CC1 (stereo not given),,1.06
Cc1ccccc1CCC1CCCN(Cc2nccn2C)C1 (stereo not given),0.78,
COc1ccc(OCc2cc(C(=O)N(C)Cc3cc(C)[nH]n3)n[nH]2)c(Cl)c1,,0.932
O=C(CCc1nnc(CCCCc2ccccc2)o1)N1CCOc2ccccc2C1,,0.633
CCn1nc(C)c(CN2CCCC(CNS(=O)(=O)c3ccc(OC)cc3)C2)c1C (stereo not given),,1.05
CN(C(=O)c1ccsc1)C(Cc1ccccc1)C1CCN(C(=O)c2cccc(Cl)c2)CC1 (stereo not given),0.004,
Cc1cc(C)n(Cc2cc(C(=O)NCC3(N(C)C)CCCCC3)n[nH]2)n1,,0.863
CCCN(Cc1nc(-c2ccc(F)c(OC)c2)oc1C)CC1CCCO1 (stereo not given),0.774,
CN(CCc1cnn(C)c1)C(=O)c1cc(NC(=O)CC2CCCC2)cc2nc(C3CCCO3)n(C)c12 (stereo not given),0.827,
COc1cccc(C(=O)N2CCCC(c3nc(-c4ccncc4)ncc3-c3ccccc3C)C2)c1OC (stereo not given),0.01,
CCOCCCNC(=O)c1ccc(OC2CCN(C(C)=O)CC2)c(OC)c1,,0.942
CCOc1ccc(CN2CCCC(CO)(CCc3ccccc3)C2)cc1CO (stereo not given),0.796,
CCCCN(C)Cc1cnc(S(=O)(=O)CC2CCCCC2)n1CCOC,,0.039
CN(Cc1ccc(F)cc1)c1ccc(OCC(=O)N2CCN(c3nc4ccccc4s3)CC2)nn1,0.008,
COCCN(C(=O)c1ccc(OC2CCN(S(C)(=O)=O)CC2)c(Cl)c1)C(C)C,,1.01
Fc1cccc(C2CCCCN2Cc2nc(-c3ccccc3)no2)c1 (stereo not given),,0.337
O=C(Nc1ccnn1C1CCN(Cc2ccc(Cl)cc2)CC1)c1ccccc1,,0.99
O=C(c1cc(COc2ccc(-n3cncn3)cc2)on1)N1CCC(N2CCOCC2)CC1,0.817,
CN(Cc1cccnc1)CC1(O)CCCN(Cc2cccc(F)c2F)C1=O (stereo not given),,0.88
Cc1ncsc1CCCNc1ccc(-c2nc(C3CC3)no2)cn1,0.335,
